# These are yes or no findings as the source states them, for the method shown. Binding seen in cells or lysates may run through a third protein. Here binding means that the protein was enriched with, or labelled near, the bait; the list need not be complete.
# By UniProt entry, the sequences of proteins in these tests, tags left out.
# UniProt O95243: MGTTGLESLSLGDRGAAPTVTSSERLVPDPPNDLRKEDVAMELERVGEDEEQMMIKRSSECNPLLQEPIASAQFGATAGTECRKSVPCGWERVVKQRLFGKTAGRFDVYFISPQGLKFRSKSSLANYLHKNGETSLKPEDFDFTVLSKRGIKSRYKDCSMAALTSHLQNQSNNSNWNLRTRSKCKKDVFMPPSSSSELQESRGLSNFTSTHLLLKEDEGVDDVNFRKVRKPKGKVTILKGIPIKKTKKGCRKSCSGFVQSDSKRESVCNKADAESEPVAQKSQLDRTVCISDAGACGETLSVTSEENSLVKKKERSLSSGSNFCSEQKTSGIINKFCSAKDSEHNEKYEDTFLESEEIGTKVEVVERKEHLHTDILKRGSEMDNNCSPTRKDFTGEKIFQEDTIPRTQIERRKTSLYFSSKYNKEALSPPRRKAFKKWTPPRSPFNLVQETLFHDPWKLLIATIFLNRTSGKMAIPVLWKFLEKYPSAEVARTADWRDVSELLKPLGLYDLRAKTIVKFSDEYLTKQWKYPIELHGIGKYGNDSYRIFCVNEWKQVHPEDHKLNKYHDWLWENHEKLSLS
# UniProt Q93009: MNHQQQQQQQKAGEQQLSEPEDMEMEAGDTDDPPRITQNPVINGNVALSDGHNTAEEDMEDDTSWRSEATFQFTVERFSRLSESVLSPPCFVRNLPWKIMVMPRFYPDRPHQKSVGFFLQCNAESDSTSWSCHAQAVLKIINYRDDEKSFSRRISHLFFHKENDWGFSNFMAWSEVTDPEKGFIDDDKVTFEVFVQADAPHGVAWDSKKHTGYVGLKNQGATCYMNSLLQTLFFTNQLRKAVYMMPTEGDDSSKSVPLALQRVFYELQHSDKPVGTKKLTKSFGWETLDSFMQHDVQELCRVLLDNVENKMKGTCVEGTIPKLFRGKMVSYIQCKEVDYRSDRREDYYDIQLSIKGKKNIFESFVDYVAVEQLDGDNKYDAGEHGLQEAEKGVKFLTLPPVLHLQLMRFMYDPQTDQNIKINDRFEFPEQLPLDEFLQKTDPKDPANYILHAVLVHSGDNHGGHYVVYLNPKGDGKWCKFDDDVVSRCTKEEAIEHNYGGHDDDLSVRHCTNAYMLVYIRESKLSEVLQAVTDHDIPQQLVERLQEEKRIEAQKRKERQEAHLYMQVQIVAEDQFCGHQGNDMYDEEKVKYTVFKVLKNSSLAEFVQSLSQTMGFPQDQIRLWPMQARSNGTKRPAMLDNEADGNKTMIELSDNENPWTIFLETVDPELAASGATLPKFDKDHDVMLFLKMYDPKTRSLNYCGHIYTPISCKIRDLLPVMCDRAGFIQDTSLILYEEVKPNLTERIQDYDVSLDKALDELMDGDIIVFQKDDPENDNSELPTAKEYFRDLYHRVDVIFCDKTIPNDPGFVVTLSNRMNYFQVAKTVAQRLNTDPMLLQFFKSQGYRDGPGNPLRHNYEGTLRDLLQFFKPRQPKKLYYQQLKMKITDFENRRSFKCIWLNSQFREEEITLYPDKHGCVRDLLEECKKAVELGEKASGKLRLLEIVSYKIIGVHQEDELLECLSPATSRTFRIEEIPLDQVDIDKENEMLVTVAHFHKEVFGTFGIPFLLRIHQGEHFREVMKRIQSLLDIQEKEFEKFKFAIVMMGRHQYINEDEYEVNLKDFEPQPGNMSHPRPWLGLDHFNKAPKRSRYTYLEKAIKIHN
# Target: FLAG-hMBD4 (SF-TAP-hMBD4), human full-length MBD4 (human) (UniProt O95243)
# Experiment: affinity purification with mass spectrometry; FLAG-MBD4 purified on anti-FLAG beads from MNase-digested nuclear extract of transfected 293T cells; SDS-PAGE, excised bands, Mascot search; control: empty vector
substance,measurement,value
"USP7 (ubiquitin specific peptidase 7, herpes virus-associated), found by mass spectrometry in the FLAG-MBD4 purification (from UniProt Q93009 1-1102)",binding,binds

# From publication PMC4964934
